# According to the supplement of paper PMC8728848:
# The list shows a part of the results.
# B1: Pbx1CASH domain (Cryptococcus neoformans) (protein)
# chain: MDETKPLWGNPRADGISLACKDSIVERNVVYDATDGAIVLFGSAGSTVKNNHVYARTRVILGGINLVDYEPWDGDYTNVKVHHNHLYALGRYFKVGIVIGPASWSDDTESVVHSASVTDNEFSGGYWGYGIVVASAKNFEVLRNKVIWDGEQGVARFSGVPGS
# Experiments:
# Assay in all cases: glycan array binding signal (z-score within array); higher = stronger binding
# Details in all cases: glycan notation: IUPAC condensed, linker removed
# [1] = target: Fuc(a1-2)Gal6S(b1-3)GlcNAc6S
# Method in brief: (§1)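 Glycan array data were curated from 3228 arrays in the Consortium for Functional Glycomics database and kept only where the protein sequence was available. Glycan names were converted to IUPAC-condensed notation, and columns mapping to the same glycan were averaged. The binding signal is a within-array Z-score, averaged across arrays of the same protein sequence at different concentrations or buffers and across linkers. Negative Z-scores can be read as non-binding.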
# Fuc(a1-2)Gal6S(b1-4)Glc = target: Fuc(a1-2)Gal6S(b1-4)Glc
# Method in brief: as §1
# [2] = target: Fuc(a1-2)Gal6S(b1-4)Glc6S
# Method in brief: as §1
# Fuc(a1-2)[Gal(a1-3)]Gal = target: Fuc(a1-2)[Gal(a1-3)]Gal
# Method in brief: as §1
# [3] = target: Fuc(a1-2)[Gal(a1-3)]Gal(b1-3)GalNAc
# Method in brief: as §1
# [4] = target: Fuc(a1-2)[Gal(a1-3)]Gal(b1-3)GalNAc(b1-3)Gal(a1-4)Gal(b1-4)Glc
# Method in brief: as §1
# [5] = target: Fuc(a1-2)[Gal(a1-3)]Gal(b1-3)GlcNAc
# Method in brief: as §1
# [6] = target: Fuc(a1-2)[Gal(a1-3)]Gal(b1-3)GlcNAc(b1-2)Man(a1-3)[Fuc(a1-2)[Gal(a1-3)]Gal(b1-3)GlcNAc(b1-2)Man(a1-6)]Man(b1-4)GlcNAc(b1-4)GlcNAc
# Method in brief: as §1
# [7] = target: Fuc(a1-2)[Gal(a1-3)]Gal(b1-3)GlcNAc(b1-2)Man(a1-3)[Fuc(a1-2)[Gal(a1-3)]Gal(b1-3)GlcNAc(b1-2)Man(a1-6)]Man(b1-4)GlcNAc(b1-4)[Fuc(a1-6)]GlcNAc
# Method in brief: as §1
# [8] = target: Fuc(a1-2)[Gal(a1-3)]Gal(b1-3)GlcNAc(b1-3)GalNAc
# Method in brief: as §1
# [9] = target: Fuc(a1-2)[Gal(a1-3)]Gal(b1-3)GlcNAc(b1-6)GalNAc
# Method in brief: as §1
# [10] = target: Fuc(a1-2)[Gal(a1-3)]Gal(b1-4)Glc
# Method in brief: as §1
# [11] = target: Fuc(a1-2)[Gal(a1-3)]Gal(b1-4)GlcNAc
# Method in brief: as §1
# [12] = target: Fuc(a1-2)[Gal(a1-3)]Gal(b1-4)GlcNAc(b1-2)Man
# Method in brief: as §1
# [13] = target: Fuc(a1-2)[Gal(a1-3)]Gal(b1-4)GlcNAc(b1-2)Man(a1-3)[Fuc(a1-2)[Gal(a1-3)]Gal(b1-4)GlcNAc(b1-2)Man(a1-6)]Man(b1-4)GlcNAc(b1-4)GlcNAc
# Method in brief: as §1
# [14] = target: Fuc(a1-2)[Gal(a1-3)]Gal(b1-4)GlcNAc(b1-2)Man(a1-3)[Fuc(a1-2)[Gal(a1-3)]Gal(b1-4)GlcNAc(b1-2)Man(a1-6)]Man(b1-4)GlcNAc(b1-4)[Fuc(a1-6)]GlcNAc
# Method in brief: as §1
# [15] = target: Fuc(a1-2)[Gal(a1-3)]Gal(b1-4)GlcNAc(b1-3)GalNAc
# Method in brief: as §1
# [16] = target: Fuc(a1-2)[Gal(a1-3)]Gal(b1-4)GlcNAc(b1-6)GalNAc
# Method in brief: as §1
# [17] = target: Fuc(a1-2)[Gal(a1-3)]Gal(b1-4)[Fuc(a1-3)]Glc
# Method in brief: as §1
# [18] = target: Fuc(a1-2)[Gal(a1-3)]Gal(b1-4)[Fuc(a1-3)]GlcNAc
# Method in brief: as §1
# [19] = target: Fuc(a1-2)[Gal(a1-3)]Gal(b1-4)[Fuc(a1-3)]GlcNAc(b1-3)GalNAc
# Method in brief: as §1
# [20] = target: Fuc(a1-2)[Gal(a1-4)]Gal(b1-4)GlcNAc
# Method in brief: as §1
# [21] = target: Fuc(a1-2)[GalNAc(a1-3)]Gal
# Method in brief: as §1
# [22] = target: Fuc(a1-2)[GalNAc(a1-3)]Gal(b1-3)GalNAc(a1-3)[Fuc(a1-2)]Gal(b1-4)GlcNAc
# Method in brief: as §1
# [23] = target: Fuc(a1-2)[GalNAc(a1-3)]Gal(b1-3)GalNAc(b1-3)Gal(a1-4)Gal(b1-4)Glc
# Method in brief: as §1
# [24] = target: Fuc(a1-2)[GalNAc(a1-3)]Gal(b1-3)GlcNAc
# Method in brief: as §1
# [25] = target: Fuc(a1-2)[GalNAc(a1-3)]Gal(b1-3)GlcNAc(b1-2)Man(a1-3)[Fuc(a1-2)[GalNAc(a1-3)]Gal(b1-3)GlcNAc(b1-2)Man(a1-6)]Man(b1-4)GlcNAc(b1-4)GlcNAc
# Method in brief: as §1
# [26] = target: Fuc(a1-2)[GalNAc(a1-3)]Gal(b1-3)GlcNAc(b1-2)Man(a1-3)[Fuc(a1-2)[GalNAc(a1-3)]Gal(b1-3)GlcNAc(b1-2)Man(a1-6)]Man(b1-4)GlcNAc(b1-4)[Fuc(a1-6)]GlcNAc
# Method in brief: as §1
# [27] = target: Fuc(a1-2)[GalNAc(a1-3)]Gal(b1-3)GlcNAc(b1-3)GalNAc
# Method in brief: as §1
# [28] = target: Fuc(a1-2)[GalNAc(a1-3)]Gal(b1-3)GlcNAc(b1-6)GalNAc
# Method in brief: as §1
# [29] = target: Fuc(a1-2)[GalNAc(a1-3)]Gal(b1-4)Glc
# Method in brief: as §1
# [30] = target: Fuc(a1-2)[GalNAc(a1-3)]Gal(b1-4)GlcNAc
# Method in brief: as §1
# [31] = target: Fuc(a1-2)[GalNAc(a1-3)]Gal(b1-4)GlcNAc(b1-2)Man
# Method in brief: as §1
# [32] = target: Fuc(a1-2)[GalNAc(a1-3)]Gal(b1-4)GlcNAc(b1-2)Man(a1-3)[Fuc(a1-2)[GalNAc(a1-3)]Gal(b1-4)GlcNAc(b1-2)Man(a1-6)]Man(b1-4)GlcNAc(b1-4)GlcNAc
# Method in brief: as §1
# [33] = target: Fuc(a1-2)[GalNAc(a1-3)]Gal(b1-4)GlcNAc(b1-2)Man(a1-3)[Fuc(a1-2)[GalNAc(a1-3)]Gal(b1-4)GlcNAc(b1-2)Man(a1-6)]Man(b1-4)GlcNAc(b1-4)[Fuc(a1-6)]GlcNAc
# Method in brief: as §1
# [34] = target: Fuc(a1-2)[GalNAc(a1-3)]Gal(b1-4)GlcNAc(b1-3)Gal(b1-4)GlcNAc
# Method in brief: as §1
# [35] = target: Fuc(a1-2)[GalNAc(a1-3)]Gal(b1-4)GlcNAc(b1-3)Gal(b1-4)GlcNAc(b1-3)Gal(b1-4)GlcNAc
# Method in brief: as §1
# [36] = target: Fuc(a1-2)[GalNAc(a1-3)]Gal(b1-4)GlcNAc(b1-3)GalNAc
# Method in brief: as §1
# [37] = target: Fuc(a1-2)[GalNAc(a1-3)]Gal(b1-4)GlcNAc(b1-3)[Fuc(a1-2)[GalNAc(a1-3)]Gal(b1-4)GlcNAc(b1-6)]GalNAc
# Method in brief: as §1
# [38] = target: Fuc(a1-2)[GalNAc(a1-3)]Gal(b1-4)GlcNAc(b1-6)GalNAc
# Method in brief: as §1
# [39] = target: Fuc(a1-2)[GalNAc(a1-3)]Gal(b1-4)[Fuc(a1-3)]GlcNAc
# Method in brief: as §1
# [40] = target: Fuc(a1-2)[GalNAc(a1-3)]Gal(b1-4)[Fuc(a1-3)]GlcNAc(b1-3)GalNAc
# Method in brief: as §1
# [41] = target: Fuc(a1-2)[GalNAc(a1-4)]Gal(b1-4)GlcNAc
# Method in brief: as §1
# [42] = target: Fuc(a1-2)[GalNAc(b1-3)]Gal
# Method in brief: as §1
# Fuc(a1-3)GlcNAc = target: Fuc(a1-3)GlcNAc
# Method in brief: as §1
binder,measurement,setting,value
B1,glycan array binding signal (z-score),[1],2.12
same,glycan array binding signal (z-score),Fuc(a1-2)Gal6S(b1-4)Glc,-0.089
same,glycan array binding signal (z-score),[2],-0.361
same,glycan array binding signal (z-score),Fuc(a1-2)[Gal(a1-3)]Gal,-0.086
same,glycan array binding signal (z-score),[3],-0.524
same,glycan array binding signal (z-score),[4],0.227
same,glycan array binding signal (z-score),[5],-0.239
same,glycan array binding signal (z-score),[6],-0.5
same,glycan array binding signal (z-score),[7],1.03
same,glycan array binding signal (z-score),[8],0.108
same,glycan array binding signal (z-score),[9],-0.739
same,glycan array binding signal (z-score),[10],-0.317
same,glycan array binding signal (z-score),[11],-0.382
same,glycan array binding signal (z-score),[12],-0.005
same,glycan array binding signal (z-score),[13],-0.744
same,glycan array binding signal (z-score),[14],-0.277
same,glycan array binding signal (z-score),[15],0.23
same,glycan array binding signal (z-score),[16],1.25
same,glycan array binding signal (z-score),[17],-0.511
same,glycan array binding signal (z-score),[18],-0.053
same,glycan array binding signal (z-score),[19],1.43
same,glycan array binding signal (z-score),[20],0.034
same,glycan array binding signal (z-score),[21],-0.683
same,glycan array binding signal (z-score),[22],1.66
same,glycan array binding signal (z-score),[23],0.435
same,glycan array binding signal (z-score),[24],0.265
same,glycan array binding signal (z-score),[25],-0.508
same,glycan array binding signal (z-score),[26],-0.626
same,glycan array binding signal (z-score),[27],0.858
same,glycan array binding signal (z-score),[28],0.011
same,glycan array binding signal (z-score),[29],-0.564
same,glycan array binding signal (z-score),[30],-0.837
same,glycan array binding signal (z-score),[31],-0.653
same,glycan array binding signal (z-score),[32],-0.952
same,glycan array binding signal (z-score),[33],0.42
same,glycan array binding signal (z-score),[34],0.116
same,glycan array binding signal (z-score),[35],-0.185
same,glycan array binding signal (z-score),[36],0.711
same,glycan array binding signal (z-score),[37],-0.417
same,glycan array binding signal (z-score),[38],-0.246
same,glycan array binding signal (z-score),[39],-0.042
same,glycan array binding signal (z-score),[40],1.04
same,glycan array binding signal (z-score),[41],-0.628
same,glycan array binding signal (z-score),[42],-0.724
same,glycan array binding signal (z-score),Fuc(a1-3)GlcNAc,-0.88

# Shown with bars between the fields: part of the list above.
binder | measurement | setting | value
B1 | glycan array binding signal (z-score) | [9] | -0.739
same | glycan array binding signal (z-score) | [10] | -0.317
